This note sets out measurements from the supplement of paper PMC6289059.

Structures are written as SMILES. Values joined by “and” are separate entries in the source; they are usually repeats but may differ in a detail not shown here. Identical values can stand only once. The list shows a part of the results. Repeats are few or missing, and single values can be far off.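 The assay uses human stem cell-derived hepatocyte-like cells whose DGUOK gene was disrupted by CRISPR, modeling liver mtDNA depletion syndrome. ATP signals were scored within each plate, and any drug with a score of at least 3 was called a primary hit.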

The assay relates to DGUOK Δ14/Δ5 iPSC-derived hepatocyte-like cells (SV20). The experiment in a line: ATP level (CellTiter-Glo luminescence) Z score relative to plate distribution, under 2-DG glycolysis block; higher = more cellular ATP (rescue of mitochondrial ATP production). Particulars: 5 µM; treatment time: day 15 to day 20 of differentiation (5 days); 2-deoxy-D-glucose: 20 mM for 24 h before assay. In general terms: Cellular ATP, detected with luciferase, serves as a proxy for viable cell number.
On to `CC(C)CC(N(C)C)C1(c2ccc(Cl)cc2)CCC1` (stereo not drawn), for which the ATP level was inactive: -0.595.
Take `COC(=O)C1=CO[C@@H](C)[C@H]2CN3CC[C@]4(C(=O)Nc5ccccc54)[C@@H]3C[C@H]12`: the ATP level was inactive: -1.35.
`N#C/C(=C\c1cccc(O)c1)C(=O)O` [alpha-CYANO-3-HYDROXYCINNAMIC ACID]: the ATP level is inactive: -0.901.
As for `CC(=O)O[C@@H]1C[C@@]2(C)[C@H](c3ccoc3)C[C@H]3O[C@]32[C@]2(C)C(=O)C(O)=C3C(C)(C)C(=O)C=C[C@]3(C)[C@@H]12`, the ATP level was inactive: 0.698.
Consider `O=c1[nH]c2ccccc2n1CCCN1CCC(n2c(=O)[nH]c3cc(Cl)ccc32)CC1`, for which the ATP level is inactive: 2.02.
With `COP(=S)(OC)Oc1ccc(SC)c(C)c1`, the ATP level was inactive: 0.12.
Turning to `C#C[C@]1(O)CC[C@H]2[C@@H]3CCC4=CC(=O)CC[C@]4(C)[C@H]3CC[C@@]21C`, the ATP level was active: 3.34.
Next, `CC(C)[N+](C)(CCC(C(N)=O)(c1ccccc1)c1ccccc1)C(C)C`: inactive: -0.0678; `C[C@]12CC[C@H]3[C@@H](CC[C@]4(O)C[C@@H](O)CC[C@]34C=O)[C@@]1(O)CC[C@@H]2C1=CC(=O)OC1`: inactive: -14.1.
`NC(N)=NOCC[C@H](N)C(=O)O`: the ATP level was inactive: -0.934.
The value for `CC(Oc1ccc(Cl)cc1Cl)C(=O)O` (stereo not drawn) was inactive: 0.861.
As for `CNNC`, the ATP level was inactive: -0.468.
As for `O=C1C=CC(=O)c2c(O)cccc21`, the ATP level was inactive: 2.19.
Take `COc1ccc2c(c1)[C@]13CCCC[C@@H]1[C@H](C2)N(C)CC3`: the ATP level is inactive: -5.11.
Turning to `C[C@H]1O[C@@H](O[C@H]2[C@@H](O)C[C@H](O[C@H]3[C@@H](O)C[C@H](O[C@H]4CC[C@@]5(C)[C@H](CC[C@@H]6[C@@H]5CC[C@]5(C)[C@@H](C7=CC(=O)OC7)[C@@H](O)C[C@]65O)C4)O[C@@H]3C)O[C@@H]2C)C[C@H](O)[C@@H]1O`, the ATP level was inactive: -5.59.
Consider `C=C[C@H]1CN2CC[C@H]1C[C@H]2[C@H](O)c1ccnc2ccccc12`, for which the ATP level is inactive: 0.524.
Regarding `CC1=NCCc2c1[nH]c1cc(O)ccc21`, the ATP level is inactive: -1.61 and inactive: -2.32.
Next, `C=CC[C@]1(O)CC[C@H]2[C@@H]3CCC4=CC(=O)CCC4=C3C=C[C@@]21C`: inactive: -0.109.
The value for `COc1cc(OC)c2c(c1)O[C@H](c1ccc(OC)c(OC)c1)[C@@H](O)C2` was inactive: 0.784.
Consider `OC[C@@H]1CCCN2CCCC[C@H]12`, for which the ATP level is inactive: -0.309.
`O.O.O.O=C([O-])[C@H]([O-])[C@@H]([O-])C(=O)[O-].O=C([O-])[C@H]([O-])[C@@H]([O-])C(=O)[O-].[K+].[K+].[Sb+3].[Sb+3]`: the ATP level was inactive: -3.29.
Take `C1CCc2nnnn2CC1`: the ATP level was inactive: -0.731.
Turning to `C=C[C@H]1CN2CC[C@H]1C[C@@H]2[C@@H](O)c1ccnc2ccccc12`, the ATP level was inactive: 0.216.
Take `C=CCN=C=S`: the ATP level is active: 3.88.
Take `CC(Cc1ccc(O)cc1)NCC(O)c1cc(O)cc(O)c1` (stereo not drawn): the ATP level is inactive: 0.736.
Next, `C[C@@H](CO)NC(=O)[C@@H]1C=C2c3cccc4[nH]cc(c34)C[C@H]2N(C)C1`: inactive: -3.76; `Clc1ccc(C(OCCN2CCCCC2)c2ccccc2)cc1` (stereo not drawn): inactive: -0.74.
Regarding `C[C@]12CC[C@H](O)C[C@H]1CC[C@@H]1[C@@H]2C[C@@H](O)[C@]2(C)[C@@H](C3=CC(=O)OC3)CC[C@]12O`, the ATP level was inactive: 0.33.
Next, `NCCc1c[nH]c2ccccc12`: inactive: -0.405.
Next, `NC(=O)C[S+]([O-])C(c1ccccc1)c1ccccc1` (stereo not drawn): inactive: 1.26.
In the case of `CC[C@@H](C(=O)O)[C@@H]1O[C@@H]([C@@H](C)[C@H](O)[C@H](C)C(=O)[C@H](CC)[C@H]2O[C@]3(C=C[C@@H](O)[C@]4(CC[C@@](C)([C@H]5CC[C@](O)(CC)[C@H](C)O5)O4)O3)[C@H](C)C[C@@H]2C)[C@@H](C)C[C@@H]1C`, the ATP level was inactive: -17.4.
In the case of `CC(=O)OCC1=C(C(=O)O)N2C(=O)[C@@H](NC(=O)CCC[C@@H](N)C(=O)O)[C@H]2SC1`, the ATP level was inactive: 1.72.
For the molecule `COc1c2c(cc3c1OCO3)CC[N+](C)=C2`, the ATP level was inactive: 1.39.
As to `Cc1cccc(C)c1NC1=NCCCS1`, the ATP level is inactive: -13.1.
On to `C[C@]12CCC(=O)C=C1CCc1ccc(O)cc12`, for which the ATP level is inactive: -5.32.
Next, `O=C1CCC[C@@H]2[C@H]3CCCN4CCC[C@@H](CN12)[C@@H]34`: inactive: -2.54; `O=P1(NCCCl)OCCCN1CCCl` (stereo not drawn): inactive: 1.39.
The value for `CC(=O)Oc1ccc(Cl)c2cccnc12` was inactive: -1.66.
On to `N#CN=C(N)N`, for which the ATP level is inactive: -1.25.
As for `C=C(C)[C@@H]1[C@H]2OC(=O)[C@@H]1[C@]1(O)C[C@H]3O[C@]34C(=O)O[C@H]2[C@]14C`, the ATP level is inactive: -2.33.
With `CC(C)c1c(CN(C)C(C)Cc2ccccc2)n(C)n(-c2ccccc2)c1=O` (stereo not drawn), the ATP level was inactive: 0.344.
Consider `N#CCCN`, for which the ATP level is inactive: -1.17.
`Oc1ccc(Cl)cc1`: the ATP level was inactive: -0.0639.
Next, `CC1=CCC[C@@H]2C1(C)CCC(C)[C@@]2(C)CC/C(C)=C/C[n+]1cn(C)c2c(N)ncnc21` (stereo partly drawn): inactive: 0.569; `O=c1[nH]c(=O)n(Cl)c(=O)n1Cl`: inactive: 2.89; `COS(C)(=O)=O`: inactive: -0.861.
As to `CC(=O)OC1CCC23C(=O)OC45CCC(C6=CC(=O)OC6)C4(C)CCC2C5CCC3(O)C1` (stereo not drawn), the ATP level is inactive: -11.6.
Regarding `NC(=O)CN1CCCC1=O`, the ATP level is inactive: 2.08.
The value for `COC(=O)C(c1ccccc1)C1CCCCN1` (stereo not drawn) was inactive: 2.97.
For the molecule `COC[C@]12CN(C=O)[C@@H]3[C@@H]4[C@H](OC)[C@H]1[C@@]3([C@@H](OC)C[C@H]2O)[C@@H]1C[C@@]2(O)[C@H](OC(=O)c3ccccc3)[C@@H]1[C@]4(OC(C)=O)[C@@H](O)[C@@H]2OC`, the ATP level was inactive: 1.29.
Consider `CC(C)=CCCC1(C)C=Cc2c(O)c3c(c(CC=C(C)C)c2O1)OC12C(=CC4CC1C(C)(C)OC2(C/C=C(/C)C(=O)O)C4O)C3=O` (stereo not drawn), for which the ATP level is inactive: 1.28.
In the case of `C[C@H]1C(=O)O[C@@H]2CCN3CC=C(COC(=O)[C@](C)(O)[C@]1(C)O)[C@H]23`, the ATP level is inactive: 1.28.
On to `CO[C@]12C[C@@H](COC(=O)c3cncc(Br)c3)CN(C)[C@@H]1Cc1cn(C)c3cccc2c13`, for which the ATP level is inactive: 0.245.
